We go through 1 molecule from US20210188972A1 (A AND G PHARMACEUTICAL, published 2021).

Results are given in words; binding and its absence hold for the method and conditions named. Binding seen in cells or lysates may run through a third protein. These calls come from enrichment with a bait or labelling near it, and not all partners need be listed.

This test addresses PTGFRN on SCSC cells (hamster spindle cell sarcomatoid carcinoma) (hamster). Put plainly: immunoprecipitation from biotinylated SCSC membrane lysate, western blot, mass spectrometry.

B1: 33B7 (antibody, V domains shown)
VH: DVQLQESGPGLVKPSQSLSLTCSVTGCSITSGYYWNWIRQFPGNKLEWMGYISHDGNNNYSPSLKNRISITRDTSKNQFFLKLNSVTTEDTATYYCARGFYYYGYFGYWGQGTTLTVSS
VL: DIVMSQSPSSLAVSVGEKVTMSCKSSQSLLYSTNQKNYLAWYQQKPGQSPKPLIYWASTRESGVPDRFTGSGSGTDFTLTISSVKAEDLAVYYCQQYYSYRTFGGGTKLEIKR
notes: Murine hybridoma monoclonal IgG (ATCC PTA-124281); also called AG02; AGO2
Turning to B1, the binding entry is reported as “binds”.
